# Measured values reported in the supplement of paper PMC8728848.
# This is one part of the list.
# B1: Flo11 (Saccharomyces cerevisiae), P08640 (protein)
# chain: MQRPFLLAYLVLSLLFNSALGFPTALVPRGSSEGTSCNSIVNGCPNLDFNWHMDQQNIMQYTLDVTSVSWVQDNTYQITIHVKGKENIDLKYLWSLKIIGVTGPKGTVQLYGYNENTYLIDNPTDFTATFEVYATQDVNSCQVWMPNFQIQFEYLQGSAAQYASSWQWGTTSFDLSTGCNNYDNQGHSQTDFPGFYWNIDCDNNCGGTKSSTTTSSTSESSTTTSSTSESSTTTSSTSESSTTTSSTSESSTSSSTTAPATPTTTSCTKEKPTPPTTTSCTKEKPTPPHHDTTPCTKKKTTTSKTCTKKTTTPVPTPSSSTTESSSAPVPTPSSSTTESSSAPVTSSTTESSSAPVPTPSSSTTESSSAPVTSSTTESSSAPVTSSTTESSSAPVPTPSSSTTESSSAPVTSSTTESSSAPVTSSTTESSSAPVTSSTTESSSAPVTSSTTESSSAPVPTPSSSTTESSSAPVTSSTTESSSAPVPTPSSSTTESSSAPVTSSTTESSSAPVPTPSSSTTESSSAPAPTPSSSTTESSSAPVTSSTTESSSAPVPTPSSSTTESSSTPVTSSTTESSSAPVPTPSSSTTESSSAPVPTPSSSTTESSSAPAPTPSSSTTESSSAPVTSSTTESSSAPVPTPSSSTTESSSAPVPTPSSSTTESSSAPVPTPSSSTTESSSAPVTSSTTESSSAPVTSSTTESSSAPVPTPSSSTTESSSAPVPTPSSSTTESSSAPVPTPSSSTTESSSAPVTSSTTESSSAPVPTPSSSTTESSSAPVPTPSSSTTESSSAPVPTPSSSTTESSVAPVPTPSSSSNITSSAPSSTPFSSSTESSSVPVPTPSSSTTESSSAPVSSSTTESSVAPVPTPSSSSNITSSAPSSIPFSSTTESFSTGTTVTPSSSKYPGSQTETSVSSTTETTIVPTKTTTSVTTPSTTTITTTVCSTGTNSAGETTSGCSPKTVTTTVPTTTTTSVTTSSTTTITTTVCSTGTNSAGETTSGCSPKTITTTVPCSTSPSETASESTTTSPTTPVTTVVSTTVVTTEYSTSTKPGGEITTTFVTKNIPTTYLTTIAPTPSVTTVTNFTPTTITTTVCSTGTNSAGETTSGCSPKTVTTTVPCSTGTGEYTTEATTLVTTAVTTTVVTTESSTGTNSAGKTTTGYTTKSVPTTYVTTLAPSAPVTPATNAVPTTITTTECSAATNAAGETTSVCSAKTIVSSASAGENTAPSATTPVTTAIPTTVITTESSVGTNSAGETTTGYTTKSIPTTYITTLIPGSNGAKNYETVATATNPISIKTTSQLATTASASSVAPVVTSPSLTGPLQSASGSAVATYSVPSISSTYQGAANIKVLGNFMWLLLALPVVF
# What was measured:
# Test in all cases: glycan array binding signal (z-score within array); higher = stronger binding
# Details in all cases: glycan notation: IUPAC condensed, linker removed
# Fuc(a1-2)Gal = target: Fuc(a1-2)Gal
# How it was run: (§1)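 The Consortium for Functional Glycomics database supplied 3228 glycan arrays, of which those lacking an available protein sequence were dropped. The binding signal, a within-array Z-score, was averaged across arrays of the same protein sequence and across linkers. Negative scores can be read as non-binding.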
# Fuc(a1-2)Gal(b1-3)GalNAc = target: Fuc(a1-2)Gal(b1-3)GalNAc
# How it was run: as §1
# [1] = target: Fuc(a1-2)Gal(b1-3)GalNAc(a1-3)[Fuc(a1-2)]Gal(b1-4)Glc
# How it was run: as §1
# [2] = target: Fuc(a1-2)Gal(b1-3)GalNAc(a1-3)[Fuc(a1-2)]Gal(b1-4)GlcNAc
# How it was run: as §1
# [3] = target: Fuc(a1-2)Gal(b1-3)GalNAc(b1-3)Gal
# How it was run: as §1
# [4] = target: Fuc(a1-2)Gal(b1-3)GalNAc(b1-3)Gal(a1-4)Gal(b1-4)Glc
# How it was run: as §1
# [5] = target: Fuc(a1-2)Gal(b1-3)GalNAc(b1-4)[Neu5Ac(a2-3)]Gal(b1-4)Glc
# How it was run: as §1
# Fuc(a1-2)Gal(b1-3)GlcNAc = target: Fuc(a1-2)Gal(b1-3)GlcNAc
# How it was run: as §1
# [6] = target: Fuc(a1-2)Gal(b1-3)GlcNAc(b1-2)Man(a1-3)[Fuc(a1-2)Gal(b1-3)GlcNAc(b1-2)Man(a1-6)]Man(b1-4)GlcNAc(b1-4)GlcNAc
# How it was run: as §1
# [7] = target: Fuc(a1-2)Gal(b1-3)GlcNAc(b1-2)Man(a1-3)[Fuc(a1-2)Gal(b1-3)GlcNAc(b1-2)Man(a1-6)]Man(b1-4)GlcNAc(b1-4)[Fuc(a1-6)]GlcNAc
# How it was run: as §1
# [8] = target: Fuc(a1-2)Gal(b1-3)GlcNAc(b1-3)Gal(b1-4)Glc
# How it was run: as §1
# [9] = target: Fuc(a1-2)Gal(b1-3)GlcNAc(b1-3)GalNAc
# How it was run: as §1
# [10] = target: Fuc(a1-2)Gal(b1-3)GlcNAc(b1-3)[Fuc(a1-3)[Gal(b1-4)]GlcNAc(b1-6)]Gal(b1-4)Glc
# How it was run: as §1
# [11] = target: Fuc(a1-2)Gal(b1-3)GlcNAc(b1-3)[Gal(b1-4)GlcNAc(b1-6)]Gal(b1-4)Glc
# How it was run: as §1
# [12] = target: Fuc(a1-2)Gal(b1-3)GlcNAc(b1-3)[Neu5Ac(a2-6)Gal(b1-4)GlcNAc(b1-6)]Gal(b1-4)Glc
# How it was run: as §1
# [13] = target: Fuc(a1-2)Gal(b1-3)[Fuc(a1-4)]GlcNAc
# How it was run: as §1
# [14] = target: Fuc(a1-2)Gal(b1-3)[Fuc(a1-4)]GlcNAc(b1-2)Man(a1-3)[Fuc(a1-2)Gal(b1-3)[Fuc(a1-4)]GlcNAc(b1-2)Man(a1-6)]Man(b1-4)GlcNAc(b1-4)GlcNAc
# How it was run: as §1
# [15] = target: Fuc(a1-2)Gal(b1-3)[Fuc(a1-4)]GlcNAc(b1-3)[Fuc(a1-3)[Gal(b1-4)]GlcNAc(b1-6)]Gal(b1-4)Glc
# How it was run: as §1
# [16] = target: Fuc(a1-2)Gal(b1-3)[Fuc(a1-4)]GlcNAc(b1-3)[Gal(b1-4)GlcNAc(b1-6)]Gal(b1-4)Glc
# How it was run: as §1
# Fuc(a1-2)Gal(b1-4)Glc = target: Fuc(a1-2)Gal(b1-4)Glc
# How it was run: as §1
# Fuc(a1-2)Gal(b1-4)Glc6S = target: Fuc(a1-2)Gal(b1-4)Glc6S
# How it was run: as §1
# Fuc(a1-2)Gal(b1-4)GlcNAc = target: Fuc(a1-2)Gal(b1-4)GlcNAc
# How it was run: as §1
# [17] = target: Fuc(a1-2)Gal(b1-4)GlcNAc(b1-2)Man(a1-3)[Fuc(a1-2)Gal(b1-4)GlcNAc(b1-2)Man(a1-6)]Man(b1-4)GlcNAc(b1-4)GlcNAc
# How it was run: as §1
# [18] = target: Fuc(a1-2)Gal(b1-4)GlcNAc(b1-2)Man(a1-3)[Fuc(a1-2)Gal(b1-4)GlcNAc(b1-2)Man(a1-6)]Man(b1-4)GlcNAc(b1-4)[Fuc(a1-6)]GlcNAc
# How it was run: as §1
# [19] = target: Fuc(a1-2)Gal(b1-4)GlcNAc(b1-2)[Fuc(a1-2)Gal(b1-4)GlcNAc(b1-4)]Man(a1-3)[Fuc(a1-2)Gal(b1-4)GlcNAc(b1-2)Man(a1-6)]Man(b1-4)GlcNAc(b1-4)GlcNAc
# How it was run: as §1
# [20] = target: Fuc(a1-2)Gal(b1-4)GlcNAc(b1-3)Gal(b1-4)GlcNAc
# How it was run: as §1
# [21] = target: Fuc(a1-2)Gal(b1-4)GlcNAc(b1-3)Gal(b1-4)GlcNAc(b1-3)Gal(b1-4)GlcNAc
# How it was run: as §1
# [22] = target: Fuc(a1-2)Gal(b1-4)GlcNAc(b1-3)GalNAc
# How it was run: as §1
# [23] = target: Fuc(a1-2)Gal(b1-4)GlcNAc(b1-3)[Fuc(a1-2)Gal(b1-4)GlcNAc(b1-6)]GalNAc
# How it was run: as §1
# [24] = target: Fuc(a1-2)Gal(b1-4)GlcNAc6S
# How it was run: as §1
binder,measurement,setting,value
B1,glycan array binding signal (z-score),Fuc(a1-2)Gal,-0.634
same,glycan array binding signal (z-score),Fuc(a1-2)Gal(b1-3)GalNAc,-0.307
same,glycan array binding signal (z-score),[1],1.02
same,glycan array binding signal (z-score),[2],0.964
same,glycan array binding signal (z-score),[3],4.03
same,glycan array binding signal (z-score),[4],-0.679
same,glycan array binding signal (z-score),[5],0.519
same,glycan array binding signal (z-score),Fuc(a1-2)Gal(b1-3)GlcNAc,-0.02
same,glycan array binding signal (z-score),[6],0.3
same,glycan array binding signal (z-score),[7],0.319
same,glycan array binding signal (z-score),[8],-0.645
same,glycan array binding signal (z-score),[9],-1.08
same,glycan array binding signal (z-score),[10],-0.176
same,glycan array binding signal (z-score),[11],-0.282
same,glycan array binding signal (z-score),[12],-0.495
same,glycan array binding signal (z-score),[13],-0.133
same,glycan array binding signal (z-score),[14],-0.514
same,glycan array binding signal (z-score),[15],0.43
same,glycan array binding signal (z-score),[16],-0.237
same,glycan array binding signal (z-score),Fuc(a1-2)Gal(b1-4)Glc,-0.316
same,glycan array binding signal (z-score),Fuc(a1-2)Gal(b1-4)Glc6S,-0.035
same,glycan array binding signal (z-score),Fuc(a1-2)Gal(b1-4)GlcNAc,-0.335
same,glycan array binding signal (z-score),[17],0.607
same,glycan array binding signal (z-score),[18],-0.198
same,glycan array binding signal (z-score),[19],-0.519
same,glycan array binding signal (z-score),[20],0.24
same,glycan array binding signal (z-score),[21],-1.32
same,glycan array binding signal (z-score),[22],1.35
same,glycan array binding signal (z-score),[23],-0.989
same,glycan array binding signal (z-score),[24],1.02

# Looked up one by one from above (2):
binder,measurement,setting,value
B1,glycan array binding signal (z-score),[19],-0.519
same,glycan array binding signal (z-score),Fuc(a1-2)Gal,-0.634
